Values from PubChem BioAssay AID1224830 (NIAID, 2016)
In all, the deposit lists about 18,000 reagents; shown is a part drawn at random. In the full data, about 2,900 (16%) got an active call. 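Calls are made per well; low scores hint the gene aids the LPS response, high scores that it dampens it.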 Entries without a mark were called inactive. Repeated entries: four replicate wells of each siRNA pool. Reagent sequences are not shown.

- Assay: 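Genes whose knock-down alters the TNF-alpha reporter response to LPS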 (primary screen)
- Cell system: human THP-1 monocytic leukaemia cells, TNF dual-luciferase reporter clone, PMA-differentiated to macrophage-like cells
- Reagent: siRNA pool against human genes, 50 nM
- Duration: LPS for 4 h, given about 3 days after siRNA transfection
- Challenge: bacterial LPS (TLR4 ligand), 10 ng/ml
- Measured: 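TNF firefly reporter luminescence divided by renilla, normalised to the plate median, then turned into a robust z-score for each replicate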
- Direction: TNF reporter robust z-score: higher = stronger TNF reporter response to LPS
- Active means: 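a well is active when its z-score exceeds 2.8 or falls below -1.5; control wells carry no call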

gene | TNF reporter robust z-score
MYO15A (myosin XVA) | -0.09
MYO15A (myosin XVA) | 1.13
MYO15A (myosin XVA) | 2.21
MYO15A (myosin XVA) | 0.44
TLCD3B (TLC domain containing 3B) | 0.21
TLCD3B (TLC domain containing 3B) | -0.42
TLCD3B (TLC domain containing 3B) | -0.47
TLCD3B (TLC domain containing 3B) | 0.13
RBSN (rabenosyn, RAB effector) | 0.78
RBSN (rabenosyn, RAB effector) | 0.9
RBSN (rabenosyn, RAB effector) | 0.57
RBSN (rabenosyn, RAB effector) | 1.66
SLC39A6 | -0.67
SLC39A6 | -1.34
SLC39A6 | -1.58 (active)
SLC39A6 | -1.46
AARD (alanine and arginine rich domain containing protein) | 0.01
AARD (alanine and arginine rich domain containing protein) | -0.66
AARD (alanine and arginine rich domain containing protein) | 0.04
AARD (alanine and arginine rich domain containing protein) | -0.3
SMYD2 (SET and MYND domain containing 2) | -0.32
SMYD2 (SET and MYND domain containing 2) | -0.02
SMYD2 (SET and MYND domain containing 2) | -0.11
SMYD2 (SET and MYND domain containing 2) | 0.32
BFSP2 (beaded filament structural protein 2) | 0.89
BFSP2 (beaded filament structural protein 2) | 2
BFSP2 (beaded filament structural protein 2) | 0.67
BFSP2 (beaded filament structural protein 2) | 3 (active)
ENSA (endosulfine alpha) | -1.71 (active)
ENSA (endosulfine alpha) | -1.3
ENSA (endosulfine alpha) | -0.83
ENSA (endosulfine alpha) | -1.15
ARID3B (AT-rich interaction domain 3B) | -0.49
ARID3B (AT-rich interaction domain 3B) | -1.29
ARID3B (AT-rich interaction domain 3B) | -0.26
ARID3B (AT-rich interaction domain 3B) | -0.46
TRIM22 (tripartite motif containing 22) | -0.39
TRIM22 (tripartite motif containing 22) | -0.71
TRIM22 (tripartite motif containing 22) | 0.05
TRIM22 (tripartite motif containing 22) | 1.37
LNPK (lunapark, ER junction formation factor) | 0.29
LNPK (lunapark, ER junction formation factor) | -0.96
LNPK (lunapark, ER junction formation factor) | -0.12
LNPK (lunapark, ER junction formation factor) | 0.83

13 entries from above, ordered by “TNF reporter robust z-score”, low to high.
gene | TNF reporter robust z-score
ENSA (endosulfine alpha) | -1.3
ARID3B (AT-rich interaction domain 3B) | -1.29
ENSA (endosulfine alpha) | -1.15
LNPK (lunapark, ER junction formation factor) | -0.96
ENSA (endosulfine alpha) | -0.83
TRIM22 (tripartite motif containing 22) | -0.71
ARID3B (AT-rich interaction domain 3B) | -0.49
ARID3B (AT-rich interaction domain 3B) | -0.46
TRIM22 (tripartite motif containing 22) | -0.39
ARID3B (AT-rich interaction domain 3B) | -0.26
TRIM22 (tripartite motif containing 22) | 0.05
LNPK (lunapark, ER junction formation factor) | 0.29
TRIM22 (tripartite motif containing 22) | 1.37

The results go on.
gene | TNF reporter robust z-score
METTL9 (methyltransferase 9, His-X-His N1(pi)-histidine) | -1.14
METTL9 (methyltransferase 9, His-X-His N1(pi)-histidine) | -0.09
METTL9 (methyltransferase 9, His-X-His N1(pi)-histidine) | -0.5
METTL9 (methyltransferase 9, His-X-His N1(pi)-histidine) | -0.64
LOC401052 (retired record) | -0.96
LOC401052 (retired record) | 0.11
LOC401052 (retired record) | 0.04
LOC401052 (retired record) | 0.1
WHR1 (winged helix repair factor 1) | -0.89
WHR1 (winged helix repair factor 1) | -0.49
WHR1 (winged helix repair factor 1) | -0.63
WHR1 (winged helix repair factor 1) | 0.8
PPIL4 (peptidylprolyl isomerase like 4) | 0.34
PPIL4 (peptidylprolyl isomerase like 4) | 0.56
PPIL4 (peptidylprolyl isomerase like 4) | 0.51
PPIL4 (peptidylprolyl isomerase like 4) | 1.06
DNAJA3 (DnaJ heat shock protein family (Hsp40) member A3) | -0.61
DNAJA3 (DnaJ heat shock protein family (Hsp40) member A3) | 0.39
DNAJA3 (DnaJ heat shock protein family (Hsp40) member A3) | 0.29
DNAJA3 (DnaJ heat shock protein family (Hsp40) member A3) | -0.27
CD68 (CD68 molecule) | 2.22
CD68 (CD68 molecule) | 1.91
CD68 (CD68 molecule) | 0.36
CD68 (CD68 molecule) | 0.37
S100A1 (S100 calcium binding protein A1) | 0.44
S100A1 (S100 calcium binding protein A1) | 1.45
S100A1 (S100 calcium binding protein A1) | -0.05
S100A1 (S100 calcium binding protein A1) | 0.63
RPS6KA3 (ribosomal protein S6 kinase A3) | 0.62
RPS6KA3 (ribosomal protein S6 kinase A3) | 0.77
RPS6KA3 (ribosomal protein S6 kinase A3) | 0.58
RPS6KA3 (ribosomal protein S6 kinase A3) | 1.36
